This is an account of results in the supplement of paper PMC3334620.

In all, about 33,000 sequences were measured (“E-score (-0.5 to 0.5)”: median about -0.015, highest 2% from about 0.3 on). The list shows a part of the results.

The assay concerns the target T1, Abf1 (UniProt P14164).
T1 sequence: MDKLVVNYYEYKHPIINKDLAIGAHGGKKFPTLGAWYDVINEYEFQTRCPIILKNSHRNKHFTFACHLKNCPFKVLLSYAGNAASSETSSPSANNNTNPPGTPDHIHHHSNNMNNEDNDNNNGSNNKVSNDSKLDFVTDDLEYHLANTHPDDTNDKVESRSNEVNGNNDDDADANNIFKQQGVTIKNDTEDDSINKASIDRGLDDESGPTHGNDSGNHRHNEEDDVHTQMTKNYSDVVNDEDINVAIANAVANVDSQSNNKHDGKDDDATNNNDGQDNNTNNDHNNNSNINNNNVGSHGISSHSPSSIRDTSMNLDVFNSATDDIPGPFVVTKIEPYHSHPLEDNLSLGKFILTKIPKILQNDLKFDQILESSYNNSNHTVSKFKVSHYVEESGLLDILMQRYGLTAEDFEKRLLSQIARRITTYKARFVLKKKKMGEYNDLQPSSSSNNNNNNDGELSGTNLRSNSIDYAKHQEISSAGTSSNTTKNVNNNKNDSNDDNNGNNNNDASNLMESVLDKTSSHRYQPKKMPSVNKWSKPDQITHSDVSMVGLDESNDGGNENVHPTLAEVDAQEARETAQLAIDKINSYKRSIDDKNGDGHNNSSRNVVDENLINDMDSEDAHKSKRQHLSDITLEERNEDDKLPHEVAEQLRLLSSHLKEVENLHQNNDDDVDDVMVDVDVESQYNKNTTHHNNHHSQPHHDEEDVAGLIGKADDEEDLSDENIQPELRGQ
In words: PBM E-score (8-mer binding enrichment) (E-score (-0.5 to 0.5)); higher = stronger / more preferred TF binding. Particulars: protein concentration: 200 nM; construct: GST-full length. The method in brief:
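Yeast transcription factors, full-length or as DNA-binding domains, were expressed with a GST tag using PURExpress in vitro transcription/translation. At about 100-200 nM they were applied to universal all-10-mer Agilent arrays, double-stranded by primer extension on fresh or once-stripped slides. Fluorescent anti-GST detected bound protein, and masliner normalised the scans. E-scores for ungapped eight-base words, pooled with reverse complements, came from the Universal PBM Analysis Suite.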
For ACCCTATA, the “PBM E-score” value was -0.182. Then ATTCCATC, with 0.0906; and AGGAAACT, with -0.145; and GGATGCGA, with -0.0633. On to CTTATCAC, for which the “PBM E-score” value came to 0.369. CGGGCGGA: the “PBM E-score” value is -0.157.

For the sequence AAAGATAA, the “PBM E-score” value was 0.154. The same measure for GGCCTTAC: -0.115.

In the case of CAGGACCG, the “PBM E-score” value is -0.182. The same measure for CTACAGGA: -0.204; for AAATGATC: 0.228; for CGGGCTCC: -0.173. As for ACAGGATC, the “PBM E-score” value is -0.0888. The same measure for CGTGTGTC: 0.138; for ATGCTTCG: 0.134. Then ACGTTTAG, with 0.135.

On to GCCAATTA, for which the “PBM E-score” value was determined as 0.0273. The same measure for GAAACGAA: 0.149; for AAAATATG: 0.174; for CGGGACTA: -0.0895. For the sequence CTCACGTC, the “PBM E-score” value was found to be 0.0288. The same measure for CGAAGGGC: -0.116. The same measure for CCCAATTA: -0.154; for CCACATGA: 0.139; for GAAGTGAC: 0.411. Consider CTATCATA, for which the “PBM E-score” value worked out at 0.143. Then AAACGACT, with 0.152; and CCCATTTC, with -0.182. As to GTGCGCTA, the “PBM E-score” value is -0.207. Regarding AAATAGCT, the “PBM E-score” value is -0.066.

Take CTGTTCAA: the “PBM E-score” value was -0.0275. CACGCTTC: the “PBM E-score” value was -0.106. The same measure for ATGGGAAT: -0.165; for GCATGCCA: -0.173. Then CAAAGGCA, with -0.0351. Then TCGTCCAA, with 0.22; and TATTTTGA, with 0.0197; and GCCATTTA, with 0.0328. As for CAGCATCA, the “PBM E-score” value came out at 0.0773. The same measure for ACTATACT: 0.118; for TTCCCCAA: -0.0413; for CAAGTTAA: 0.046.

Regarding CCCAGCAG, the “PBM E-score” value is -0.141.

Regarding AACTGGCA, the “PBM E-score” value is -0.114. Then CCGCATGC, with -0.15. For CGGTACCC, the “PBM E-score” value was -0.0287. Turning to GCGAATAC, the “PBM E-score” value turned out to be 0.0988.

As for AACAATGG, the “PBM E-score” value was determined as 0.0221. As to AACTCAAT, the “PBM E-score” value is -0.0924. With AATGTTCG, the “PBM E-score” value is -0.0357. Turning to CCAGGCCA, the “PBM E-score” value is -0.22. The same measure for TAGACAAA: 0.0864; for CTGCATAC: 0.0495; for CCGTCCCC: -0.00209. Then ATACTTTA, with 0.094; and ATCTCTAG, with -0.0235. The same measure for AGGACGAG: 0.0242. For ACTCATAT, the “PBM E-score” value is -0.0587. As for AAAGTGGA, the “PBM E-score” value was -0.0539.

Consider CGCGCTTA, for which the “PBM E-score” value was -0.0471. The same measure for CATTTACA: 0.0271; for CTAGTTTA: -0.0332; for AATTGTGT: -0.122. Then GAGAGGCC, with -0.201. The same measure for GGTTGATA: 0.0997; for CTTTGCGA: -0.122; for AAGGCCTA: -0.117. Take ACCCTCTG: the “PBM E-score” value is -0.117.

For the sequence ACTTGACG, the “PBM E-score” value stood at 0.026. Take GAAAGGTC: the “PBM E-score” value was determined as 0.174.

Regarding GCATGTTA, the “PBM E-score” value turned out to be 0.00387. The same measure for CGTGTTAG: 0.186; for ATACGGTG: 0.297.

For AACTACCT, the “PBM E-score” value was -0.102. The same measure for CCGGTAAC: -0.117; for GCGCAACA: -0.123. For the sequence ACGACGTA, the “PBM E-score” value amounted to 0.277. Regarding CTAAAGCC, the “PBM E-score” value was -0.291.

On to ATAAGTTG, for which the “PBM E-score” value was -0.0266. The same measure for ATCAACAA: 0.146; for ACGATGCC: -0.0797. The same measure for GTACGTGA: 0.252; for AGGAAGTG: 0.0629. Then CCGACACC, with -0.195; and ATGAAATG, with -0.0848; and GGCTGAAC, with -0.0746.
